In PubChem BioAssay AID2685 (National Center for Advancing Translational Sciences (NCATS), 2010) one finds AC50 and cell number change data, which are given here for 38 compounds.

The list shows a part of the results. These are further read-outs of the screen, such as a control signal, another cell line or another target. No call is given for them. Compounds called inactive in the main read-out are mostly missing here. Words in brackets tell the shape of the fitted curve; partial curves, single points and poor fits give uncertain potencies.

What is called AC50 is the concentration at which the activity in the assay is half-maximal. High values mean weaker potency, low ones greater potency.

A short description of the test: qHTS Assay for Lipid Storage Modulators in Drosophila S3 Cells.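 For cell number change: cells counted by Cell Tracker Red CMTPX staining in the red channel.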 Particulars: BODIPY lipid droplet fluorescence, 18-24 h; for cell number change: measured here: cell count max response, cells fed with added oleic acid. Summed up:
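Drosophila S3 cells got compounds at several concentrations plus oleic acid (400 uM solution). Laser-scanning cytometry with 488 nm excitation read lipid droplets at 500-530 nm and cells at 575-640 nm. Percent activity was relative to 20 uM Triacsin C.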
(qHTS replaces the single test concentration by a dilution series.)

Where [1] appears, read: measured here: cell number channel AC50, cells fed with added oleic acid.
[2] abbreviates: measured here: lipid fluorescence (Fed channel) AC50, cells fed with added oleic acid.

On to `COc1ccc(CCN2CC(C(=O)Nc3ccccc3F)CC2=O)cc1OC` (stereo unspecified), for which the AC50 under setting [1] is 3.66 µM [falling, single point]. As for `CCOc1ccc(CCNC(=O)Cn2nc(C)c3c(C)n(-c4ccccc4)nc3c2=O)cc1`, the cell number change is -2.31%. Still for that read-out and setting: the result for `COc1ccccc1C(=O)NCCC(=O)NNC(=O)C1COc2ccccc2O1` (stereo unspecified) reads 1%.

Regarding `O=C(Nc1nc(-c2ccccn2)cs1)c1ccc(S(=O)(=O)N2CCCCC2)cc1`, the cell number change was -32.2%. Also, under setting [1], the AC50 is 16.4 µM [falling, partial curve]. The AC50 under setting [2] is 10.3 µM [falling, partial curve]. Regarding `Cc1cnc([N+](=O)[O-])n1CCOC(=O)NC(=O)c1ccccc1`, the cell number change came to 13%.

In the case of `CCCn1c(N)c(C(=O)CSc2nnc(-c3cccnc3)n2-c2ccc(C)cc2C)c(=O)[nH]c1=O`, the cell number change is 20.1%. In addition, under setting [2], the concentration at half-maximal activity (AC50) was 18.4 µM [rising, single point]. Take `COc1ccc2[nH]c3c(=O)n(Cc4ccc(C(=O)NCC5CCCO5)cc4)c(=S)[nH]c3c2c1` (stereo unspecified): the concentration at half-maximal activity (AC50) under setting [2] is 0.00461 µM [falling, full curve, poor fit]. Consider `Nc1nonc1-c1nc2ccccc2[nH]1`, for which the cell number change was -14.4%.

Regarding `COc1ccccc1Nc1ccc(NS(=O)(=O)c2ccc(C(C)=O)cc2)cc1`, the cell number change came out at 29.1%. Also, the AC50 under setting [1] was 4.11 µM [rising, full curve, poor fit].

For the compound `COc1ccc(C(=O)C2CCCN(Cc3c(O)cccc3OC)C2)cc1OC` (stereo unspecified), the cell number change was found to be 12.6%. For the same compound, under setting [2], the half-maximal activity concentration (AC50) is 0.58 µM [rising, single point]. For `COc1ccc(N2CCN(C(=S)Nc3cccc(OC)c3)CC2)cc1`, the cell number change is -2.93%. Under setting [2], the AC50 was 0.82 µM [falling, full curve]. Consider `Cc1ccc(NC(=O)C(C)SCc2nc3sc4c(c3c(=O)[nH]2)CCCC4)nc1` (stereo unspecified), for which the cell number change worked out at 10.7%. In the case of `O=C1C(Cc2ccccc2)Nc2ncnc(N3CCN(c4ccccc4)CC3)c2N1Cc1ccc(Cl)cc1` (stereo unspecified), the cell number change amounted to 28.2%. Also, the AC50 under setting [2] was 29.1 µM [rising, partial curve, poor fit]. Consider `CCNC(=O)NC(=O)C(C)OC(=O)c1cc(S(=O)(=O)N2CCCCCC2)ccc1OC` (stereo unspecified), for which the cell number change amounted to 46.6%. Further, under setting [1], the AC50 was 1.84 µM [rising, partial curve]. Consider `O=C(NC1CCCC1)C(c1ccncc1)N(C(=O)c1ccco1)c1ccc(Cl)cc1` (stereo unspecified), for which the cell number change amounted to 4.17%. Also, under setting [2], the AC50 was 0.291 µM [falling, full curve]. For `CN(C(=O)c1ccccc1-c1ccccc1C(=O)O)c1ccccc1`, the cell number change amounted to 15%. Moreover, the AC50 under setting [2] is 0.366 µM [rising, partial curve, poor fit]. In the case of `Cc1ccc(NC(=O)CN(C)C(=O)COc2ccc(C(=O)c3ccc(F)cc3)cc2)cc1`, the cell number change was -3.37%. Further, the half-maximal activity concentration (AC50) under setting [1] is 0.0461 µM [falling, full curve, poor fit]. For the same compound, under setting [2], the AC50 was 29.1 µM [rising, single point]. Consider `COc1ccc(C(CNC(=O)c2[nH]c(C)c(C(C)=O)c2C)N2CCOCC2)cc1` (stereo unspecified), for which the cell number change worked out at 5.39%. The AC50 under setting [2] was 23.1 µM [rising, single point].

Take `CNC(=O)OC(C)CNS(=O)(=O)c1ccc(C)cc1` (stereo unspecified): the cell number change is -29.5%. The AC50 under setting [1] was 1.03 µM [falling, full curve, poor fit]. Moreover, under setting [2], the AC50 is 18.4 µM [falling, partial curve].

`O=C(NC1CCOc2ccccc21)c1ccccn1` (stereo unspecified): the cell number change was 18.8%. As to `CCS(=O)(=O)N1CCC(C(=O)NCc2ccccc2OC)CC1`, the cell number change is -16.3%. Take `COc1ccccc1OCCNC(=O)CNC(=O)c1ccc(C(C)(C)C)cc1`: the cell number change was -44.1%. Moreover, the AC50 under setting [1] was 2.31 µM [falling, partial curve, poor fit]. Besides, the AC50 under setting [2] is 16.4 µM [falling, partial curve, poor fit]. As to `CC(C)CC1Nc2ncnc(N3CCN(c4ccccc4)CC3)c2N(Cc2ccccc2)C1=O` (stereo unspecified), the cell number change was -4.98%. In addition, under setting [2], the AC50 was 20.6 µM [rising, partial curve]. For the compound `CCCOc1ccc(C(=O)CCCC(=O)c2ccc(OCCC)cc2)cc1`, the half-maximal activity concentration (AC50) under setting [2] is 29.1 µM [rising, single point].

In the case of `C/C(=N\Nc1nc(N)cc(Cl)n1)c1cccc(N)c1`, the cell number change turned out to be 16.6%. Further, the AC50 under setting [2] is 25.9 µM [falling, single point]. Take `COC(=O)c1cc(NS(=O)(=O)c2ccc(NC(C)=O)cc2)ccc1Cl`: the cell number change turned out to be 20.6%. For the same compound, the AC50 under setting [1] was 6.51 µM [rising, single point]. Moreover, the concentration at half-maximal activity (AC50) under setting [2] is 29.1 µM [rising, single point]. On to `CSc1ccc(/C=N/Nc2cccc(C(=O)O)c2)cc1`, for which, under setting [2], the AC50 is 5.8 µM [falling, partial curve, poor fit]. With `COC(=O)C(C)Sc1nnc(Cc2cc(=O)[nH]c(=O)[nH]2)n1-c1ccc(OC)cc1` (stereo unspecified), the cell number change is 13.2%. In the case of `COc1ccc2nc(C)cc(N/N=C/c3ccccc3)c2c1`, the cell number change is -52.1%. Besides, the concentration at half-maximal activity (AC50) under setting [1] was 25.9 µM [falling, partial curve]. Besides, under setting [2], the half-maximal activity concentration (AC50) was 29.1 µM [rising, single point].

Consider `O=C(Cc1ccsc1)N1CCN(S(=O)(=O)c2cccc(F)c2)CC1`, for which the cell number change was 30.3%. Further, the AC50 under setting [1] is 18.4 µM [rising, single point]. Consider `NCC(O)(c1ccc(Cl)cc1)c1ccc(Cl)cc1`, for which the cell number change is -9.93%. In addition, the AC50 under setting [2] is 23.1 µM [rising, single point].

Take `Cc1ccc(C(=O)OCC(=O)Nc2ccccc2)cc1S(=O)(=O)N1CCCCC1`: the cell number change was -1.82%. Further, the AC50 under setting [2] is 0.731 µM [falling, partial curve, poor fit]. As to `COc1ccc(NC(=O)CC(C)c2ccccc2)c([N+](=O)[O-])c1` (stereo unspecified), under setting [2], the concentration at half-maximal activity (AC50) is 6.51 µM [rising, partial curve]. On to `Cc1ccc(-n2nc3ccc(NC(=O)C(C)C)cc3n2)cc1`, for which the cell number change was -38.9%. Besides, the AC50 under setting [1] is 29.1 µM [falling, single point]. Also, the AC50 under setting [2] was 29.1 µM [falling, single point]. For `O=C(O)c1cccc(-c2ccc(/C=N/n3cnc4sc5c(c4c3=O)CCCC5)o2)c1`, the cell number change was found to be 34.9%. The AC50 under setting [1] is 13 µM [rising, single point]. Further, under setting [2], the concentration at half-maximal activity (AC50) is 23.1 µM [rising, single point]. With `O=C(CSc1nc(=O)n2ccccc2n1)NCc1ccccc1`, the cell number change was -9.64%. Take `Cn1cccc1C(C(=O)NC1CCCCC1)N(C(=O)Cc1cccs1)C1CC1` (stereo unspecified): the cell number change was -10.6%. Also, the AC50 under setting [1] was 0.13 µM [rising, full curve, poor fit]. In addition, the AC50 under setting [2] is 0.366 µM [falling, partial curve, poor fit]. Consider `O=S(=O)(c1ccccc1)N(Cc1ccccn1)Cc1ccccn1`, for which the cell number change is -49.3%. Further, the AC50 under setting [1] was 29.1 µM [falling, single point].
